Data published in the supplement of paper PMC6078165.

Test system: Hs578T
Assay: relative JC-1 red fluorescence (viability) vs pre-drug, coculture with fibroblast (fraction); higher = more viable cancer cells
Details: 1 µM
Method: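 JC-1 labelled TNBC cells cocultured 1:1 (1,500 cells each) with CellTrace Violet stained primary or stromal fibroblasts in 384-well plates in FluoroBrite medium, treated with one of 42 anticancer drugs at 0.1, 1, 10 or 100 uM. JC-1 red fluorescence (mitochondrial integrity in cancer cells only) was read by plate reader every 8 h for 72 h. Values are normalised to each well's pre-drug value. The stock of one drug was tenfold lower, so its dose labels may be too high.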

CCC1=C[C@@H]2CN(C1)Cc1c([nH]c3ccccc13)[C@@](C(=O)OC)(c1cc3c(cc1OC)N(C)[C@H]1[C@@](O)(C(=O)OC)[C@H](OC(C)=O)[C@]4(CC)C=CCN5CC[C@]31[C@@H]54)C2 [Vinorelbine]
relative JC-1 red fluorescence
Details	40 h	48 h	56 h	64 h	72 h
coculture fibroblast: C12385	–	0.474	0.446	0.438	0.443
coculture fibroblast: H6013	–	0.754	0.731	0.728	0.695
coculture fibroblast: H6019	–	0.484	0.452	0.443	0.427
coculture fibroblast: H6076	–	0.624	0.597	0.574	0.571
coculture fibroblast: H6231	–	0.516	0.462	0.427	0.405
coculture fibroblast: HADF	–	0.652	0.611	0.596	0.56
coculture fibroblast: HCFa	–	0.566	0.532	0.512	0.477
coculture fibroblast: HCPF	0.677	0.646	0.629	0.591	0.581
coculture fibroblast: HHSteC	0.636	0.599	0.574	0.553	0.527
coculture fibroblast: HMF	0.643	0.589	0.549	0.513	0.502
coculture fibroblast: HPFa	0.673	0.637	0.588	0.563	0.534
coculture fibroblast: HUF	0.6115	0.573	0.536	0.532	0.528
coculture fibroblast: Hs27A	0.736	0.7182	0.68312	0.6755	0.6342
coculture fibroblast: Hs343T	0.605	0.5622	0.5275	0.5023	0.506
coculture fibroblast: WS1	0.469	0.444	0.415	0.413	0.409

Details	relative JC-1 red fluorescence
48 h	0.563
56 h	0.548
64 h	0.501
72 h	0.487

Values are relative to the signal before dosing, not to a vehicle control; the signal also falls without drug.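 Labels refer to human fibroblasts, largely primary: uterine (C12385, HUF), lung (H6013), bone (Hs27A), adrenal (HADF), skin (WS1), plus mammary HMF and breast cancer-associated Hs343T. Cancer lines are basal-like or mesenchymal-like triple-negative breast cancer. The paper counts as hits responses shifting over 3x the replicate standard deviation. The tissue of the other fibroblasts is not given here.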
